Measurements as given in PubChem BioAssay AID493014 (National Center for Advancing Translational Sciences (NCATS), 2011).
The other results are listed elsewhere or left out. These are further read-outs of the screen, such as a control signal, another cell line or another target. No call is given for them. Most of these compounds were active or inconclusive in the main read-out, so they are no random draw. Potencies come from curve fits of mixed quality, noted in brackets.

Assay: qHTS Assay to Find Inhibitors of Chronic Active B-Cell Receptor Signaling
Details: ABC-DLBCL IkBa-CBG/CBR reporter, luminescence ratio (green luciferase fused to IkBa over red control in TMD8 lymphoma cells), 4 h
In short: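 Doxycycline induced both beetle luciferases in TMD8 lymphoma cells; IKK-driven degradation limits the IkappaBalpha-fused green signal, while red luminescence normalises for cell number and nonspecific effects. Compounds tested up to 46 uM, 4 hrs.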

[1] = measured here: CBR red luminescence, cell number
[2] = measured here: IkBa-CBG green luminescence

| SMILES | AC50 [1] | AC50 [2] |
| --- | --- | --- |
| Cc1[nH]c2ccccc2c1CC(=O)O | 16.4 µM [falling, single point] | – |
| Cc1cccc(C)c1OCC(=O)N/N=C/C=C/c1ccco1 | – | 25.1 µM [falling, partial curve, poor fit] |
| COc1ccc(-c2csc(NC(=S)NC(=O)/C=C/c3ccccc3)n2)cc1Br | 20 µM [rising, partial curve, poor fit] | – |
| Cc1ccc(CN2CCN(Cc3ccc(-n4cccn4)cc3)CC2CCO)cc1 (stereo not drawn) | 11.2 µM [rising, partial curve, poor fit] | – |
| CCCS(=O)(=O)N1CCN(C(=O)CCC2CCCC2)CC1 | 0.0651 µM [rising, full curve, poor fit] | – |
| CC(=O)c1c(C)nc(-c2ccccc2)nc1N | 3.16 µM [falling, partial curve, poor fit] | – |
| Nc1nc(C2C(=O)CCCC2=O)cs1 | 32.6 µM [rising, single point] | – |
| CC(=O)N(C1=C(Cl)C(=O)c2ccccc2C1=O)C1CCCCC1 | 22.4 µM [falling, single point] | 35.5 µM [rising, single point] |
| CCOC(=O)c1c(NC(=O)c2cc3nc(-c4ccc(OC)cc4)cc(C(F)(F)F)n3n2)sc(C)c1C | 0.112 µM [falling, full curve, poor fit] | – |
| CS(=O)(=O)N1CCN(C(=O)c2c(F)cccc2F)CC1 | 5.8 µM [rising, full curve, poor fit] | – |
| COc1ccccc1C1=NOC(COc2ccc3c(C)cc(=O)oc3c2)C1 (stereo not drawn) | 2.82 µM [rising, full curve] | 7.08 µM [falling, partial curve] |
| COc1ccc(CN2CCNC(=O)C2CC(=O)NCCc2nc(C)c(C)s2)cc1C (stereo not drawn) | 10 µM [rising, partial curve, poor fit] | – |
| COc1ccc(CCNC(=O)Cn2cc(C(F)(F)F)cc(Cl)c2=O)cc1OC | 4.11 µM [rising, full curve, poor fit] | – |
| Cc1ccc(C(=O)N/N=C\c2ccc(OC(=O)c3cccs3)cc2)cn1 | 29.1 µM [rising, single point] | – |
| CCOC(=O)Cc1csc(NC(=O)Cc2cccs2)n1 | 11.2 µM [falling, partial curve, poor fit] | – |
| COc1ccc(C)cc1S(=O)(=O)N1CCN(c2cccc(C(F)(F)F)c2)CC1 | 7.31 µM [rising, partial curve, poor fit] | – |
| Cc1cc(/C=C2/SC(=O)N(CC(=O)N3CCCC3)C2=O)c(C)n1C | 1.58 µM [rising, full curve, poor fit] | – |
| COc1cc(/C=N/NC(=O)c2ccccn2)ccc1OC(=O)c1cccs1 | 35.5 µM [falling, single point] | – |
| O=C(CN1C(=O)c2ccccc2C1=O)OCC(=O)c1ccc(F)cc1 | 3.26 µM [rising, full curve] | – |
| O=C(Cn1cnc2c(nnn2Cc2ccccc2F)c1=O)OCc1ccccc1 | 35.5 µM [rising, single point] | – |
| Cc1nn(CCc2n[nH]c(=S)n2-c2ccc(F)c(Cl)c2)c(C)c1[N+](=O)[O-] | 2.82 µM [rising, full curve, poor fit] | – |
| O=c1[nH]n(-c2ccccc2Cl)c(=O)c2ccccc12 | 5.62 µM [falling, partial curve, poor fit] | – |

| SMILES | AC50 [1] | AC50 [2] |
| --- | --- | --- |
| CC(Sc1nc2ncc(Cl)cc2[nH]1)C(=O)NC1(C#N)CCCCC1 (stereo not drawn) | 29.1 µM [falling, partial curve, poor fit] | – |
| CCN1CCN(Cc2ccc(NC(=O)c3cc(NC(=O)C(=O)c4c[nH]c5ccccc45)cc(OC)c3)cc2C(F)(F)F)CC1 | 12.6 µM [falling, partial curve, poor fit] | – |
| CN(C)S(=O)(=O)c1cccc(COc2ccccc2C(=O)Nc2ccccc2)c1 | 35.5 µM [falling, single point] | – |
| Cc1nc(Nc2ccc(F)cc2)[nH]c(=O)c1CCC(C)C | 1.3 µM [rising, full curve] | – |
| COc1ccc(C2N(c3ccc(OC)cc3)C(=O)C3CCCN32)cc1 (stereo not drawn) | 2.91 µM [falling, single point] | – |
| CSc1ncc(C(=O)Nc2ccc(Br)cn2)c(C)n1 | 35.5 µM [falling, single point] | – |
| CC(=O)Nc1ccc(/C=C/C(=O)c2ccc3c(c2)OCCO3)cc1 | 11.2 µM [falling, single point] | – |
| Cc1ccc2nc(NCCCO)nc(-c3ccccc3)c2c1 | 0.651 µM [falling, full curve, poor fit] | – |
| O=C1C2C3C=CC(CC3)C2C(=O)N1c1cccc(Br)c1 (stereo not drawn) | 35.5 µM [falling, partial curve, poor fit] | – |
| CC(=O)Nc1ccc(NC(=O)c2ccc3c(c2)C(=O)N(c2ccccc2C)C3=O)cc1 | 0.0891 µM [rising, full curve, poor fit] | – |
| Cc1cc(C)nc(NC(=NCCc2c[nH]c3ccccc23)NC(=O)Nc2ccccc2)n1 | 29.1 µM [falling, single point] | – |
| CCc1ccccc1NC(=O)c1cc(-c2cccc(O)c2)on1 | 22.4 µM [falling, partial curve, poor fit] | – |
| O=C1NC2(CCCC2)N=C1c1ccc(F)cc1 | 25.9 µM [rising, single point] | – |
| Cc1cccc(NC(=O)c2ccc(OC3CSC3)cc2)c1 | 23.1 µM [falling, single point] | – |
| O=C(Nc1cccn(Cc2c(Cl)cccc2Cl)c1=O)c1ccccc1Cl | 0.501 µM [rising, full curve, poor fit] | – |
| COc1cc2c(cc1OC)CN(Cc1nc3ccsc3c(=O)[nH]1)CC2 | 18.4 µM [rising, single point] | – |
| N#CC1=C(S)N(c2ccccc2)C(c2ccc(-c3ccccc3Cl)o2)NC1=O (stereo not drawn) | – | 18.4 µM [falling, single point] |
| COc1ccccc1NC(=O)Nc1ccc2c(c1)nnn2C | 2.31 µM [falling, partial curve] | – |
| NC(=O)C1CCN(c2nc(-c3ccccc3N)cs2)CC1 | 0.651 µM [rising, full curve] | – |
| O=C(NC(=S)Nc1nc2ccccc2s1)c1ccco1 | 3.66 µM [falling, full curve] | – |
| Cc1ccc(C)c(Nc2cc(C)nc(-c3ccccc3O)n2)c1 | 8.91 µM [falling, partial curve] | – |
| CC(C)c1ccc(/C=N/N2CCN(c3ccccn3)CC2)cc1 | 0.126 µM [rising, full curve, poor fit] | – |

| SMILES | AC50 [1] | AC50 [2] |
| --- | --- | --- |
| CCCCNC(=S)NNC(=O)CCn1nc(C)c(Br)c1C | 15.8 µM [rising, single point] | 10 µM [falling, partial curve] |
| O=C(c1ccc(Br)o1)N1CCc2ccccc21 | 2.82 µM [rising, single point] | – |
| CC#CCN1c2ccccc2[C@]23C[C@@H](C(=O)OC)N(C(=O)OCC)C2=NC(C(=O)OC)=C(C(=O)OC)[C@H]13 | 6.31 µM [rising, partial curve, poor fit] | – |
| O=C(NCc1cccs1)C(=O)NCC1OCCCN1S(=O)(=O)c1ccccc1 (stereo not drawn) | 4.61 µM [rising, partial curve] | – |
| O=C(NCCc1ccccn1)c1ccc(COc2ccccc2)o1 | 0.58 µM [falling, single point] | – |
| O=C(NCc1ccccc1)C(=O)Nc1nc(-c2ccccc2)cs1 | 11.2 µM [rising, partial curve, poor fit] | – |
| O=C(N/N=C/c1cn(-c2ccccc2)nc1-c1cccs1)c1ccc(Cl)cc1 | 1.84 µM [rising, partial curve, poor fit] | – |
| COc1ccc(C(=O)Nc2nccs2)cc1OC | 25.9 µM [falling, partial curve, poor fit] | – |
| O=Cc1ccc(-c2nc3ccccc3s2)o1 | 1.26 µM [rising, partial curve] | 6.31 µM [rising, partial curve, poor fit] |
| CC(C)(C)C(=O)CN1C(=O)C2(OCCO2)c2ccccc21 | 3.16 µM [rising, full curve, poor fit] | – |
| C/C(=N/NC(=O)CNC(=O)c1ccccn1)c1ccccc1 | 13 µM [rising, partial curve, poor fit] | – |
| Cc1ccc(C2NNC(=O)C2NC(=O)c2ccccc2)cc1 (stereo not drawn) | 25.9 µM [falling, partial curve] | – |
| CCOC(=O)c1ccc(NC(=O)CCS(=O)(=O)Cc2ccccc2)cc1 | 0.708 µM [rising, partial curve, poor fit] | – |
| Nc1c(Cl)cc(C2=NCCn3c2c2ccc(C(F)(F)F)cc2[n+]3[O-])cc1Cl | 25.9 µM [falling, single point] | – |
| c1ccc2cc3[nH]c(CN4CCOCC4)nc3cc2c1 | 29.1 µM [falling, single point] | – |
| O=C1CSC(=O)N1CC(O)COc1ccc(Cl)cc1 (stereo not drawn) | 12.6 µM [rising, single point] | – |
| Cn1c(=O)c2[nH]c(COc3ccc(C(C)(C)C)cc3)nc2n(C)c1=O | 6.31 µM [falling, single point] | – |
| CC(/C=N/NC(=O)c1ccc2nc(C)[nH]c2c1)=C\c1ccccc1 | 11.6 µM [falling, partial curve, poor fit] | – |
| Cc1[nH]c2ccccc2c1/C=N/NC(=O)c1cccs1 | 17.8 µM [falling, partial curve, poor fit] | – |
| CCOc1ccccc1N1CCN(C(=O)c2c(-c3ccccc3Cl)noc2C)CC1 | – | 4.11 µM [falling, partial curve, poor fit] |

Two of the compounds above, tab-delimited:
SMILES	AC50 [1]	AC50 [2]
O=C(Nc1cccn(Cc2c(Cl)cccc2Cl)c1=O)c1ccccc1Cl	0.501 µM [rising, full curve, poor fit]	–
COc1cc2c(cc1OC)CN(Cc1nc3ccsc3c(=O)[nH]1)CC2	18.4 µM [rising, single point]	–

Structures above with a tert-butyl group (2):

| SMILES | AC50 [1] | AC50 [2] |
| --- | --- | --- |
| CC(C)(C)C(=O)CN1C(=O)C2(OCCO2)c2ccccc21 | 3.16 µM [rising, full curve, poor fit] | – |
| Cn1c(=O)c2[nH]c(COc3ccc(C(C)(C)C)cc3)nc2n(C)c1=O | 6.31 µM [falling, single point] | – |
